We go through one molecule from publication PMC7791547, “Biochemical characterization of an E. coli cell division factor FtsE shows ATPase cycles similar to the NBDs of ABC-transporters” (Bioscience Reports, 2021).

This test concerns the target T1, Full-length FtsE as yeast two-hybrid fusion (pGBT9 and pGAD424) (E. coli), P0A9R7.
T1 chain: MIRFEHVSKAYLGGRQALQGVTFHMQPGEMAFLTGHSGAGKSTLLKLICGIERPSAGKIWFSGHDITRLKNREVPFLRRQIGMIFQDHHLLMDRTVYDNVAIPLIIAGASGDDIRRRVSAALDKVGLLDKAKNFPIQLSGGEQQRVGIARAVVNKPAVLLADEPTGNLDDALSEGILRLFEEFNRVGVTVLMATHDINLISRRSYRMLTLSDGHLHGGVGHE
Nature of the test: two-hybrid; yeast two-hybrid, full-length FtsE in pGBT9 and pGAD424, growth in histidine-deficient media. The settings on record: remark: other sources report otherwise.

These are yes or no findings as the source states them, for the method shown. Where a sequence is shown, tags or fusion partners need not be part of it.

B1: Full-length FtsE as yeast two-hybrid fusion (pGBT9 and pGAD424), P0A9R7 1-222 (protein)
chain: MIRFEHVSKAYLGGRQALQGVTFHMQPGEMAFLTGHSGAGKSTLLKLICGIERPSAGKIWFSGHDITRLKNREVPFLRRQIGMIFQDHHLLMDRTVYDNVAIPLIIAGASGDDIRRRVSAALDKVGLLDKAKNFPIQLSGGEQQRVGIARAVVNKPAVLLADEPTGNLDDALSEGILRLFEEFNRVGVTVLMATHDINLISRRSYRMLTLSDGHLHGGVGHE
For B1, the binding result is listed as “no binding”.
